Test results taken from PubChem BioAssay AID493014 (National Center for Advancing Translational Sciences (NCATS), 2011).
The other results are listed elsewhere or left out. Shown are side measurements of this screen, not its main read-out; they come without a call. The list favours compounds with an active or inconclusive main result. Words in brackets tell the shape of the fitted curve; partial curves, single points and poor fits give uncertain potencies.

Experiment: qHTS Assay to Find Inhibitors of Chronic Active B-Cell Receptor Signaling
Settings: ABC-DLBCL IkBa-CBG/CBR reporter, luminescence ratio (green luciferase fused to IkBa over red control in TMD8 lymphoma cells), 4 h
Summary of the method: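 TMD8 ABC-DLBCL cells carrying doxycycline-inducible green luciferase fused to IkappaBalpha plus unfused red luciferase were exposed to compounds (up to 46 uM) for 4 hrs at 37C. Activity came from the overlap-corrected green/red luminescence ratio.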

[1] = measured here: CBR red luminescence, cell number
[2] = measured here: IkBa-CBG green luminescence

| Structure (SMILES) | AC50 [1] | AC50 [2] |
| --- | --- | --- |
| c1ccc2c(c1)OCCc1c-2[nH]c2ccccc12 | 3.55 µM [rising, partial curve, poor fit] |  |
| COc1ccc(N2C(=O)CSC2c2cccc(OC)c2OC)cc1 (stereo not drawn) | 16.4 µM [rising, partial curve, poor fit] |  |
| N#C/C(=C\c1ccccc1[N+](=O)[O-])C(=O)NC1CCCCC1 | 20 µM [falling, partial curve, poor fit] |  |
| CC(=O)Oc1ccc2nc(-c3ccc(Br)o3)oc(=O)c2c1 | 0.355 µM [falling, full curve, poor fit] |  |
| CCc1c(C)nc(SCC(=O)Nc2ccc3c(c2)OCCO3)[nH]c1=O | 20 µM [falling, single point] |  |
| CCN(C[C@H]1N[C@@](Cc2ccccc2)(C(=O)OC)[C@H]2C(=O)N(C)C(=O)[C@@H]12)C(=O)Nc1ccc(Cl)cc1 | 29.1 µM [rising, single point] |  |
| c1ccc2c(c1)[nH]c1nc(SCCN3CCOCC3)nnc12 | 29.1 µM [falling, single point] |  |
| CCOC(=O)c1c(NC(=O)CS(=O)(=O)c2cn(CC)c3ccccc23)sc2c1CCCCC2 | 11.6 µM [rising, partial curve, poor fit] |  |
| CCOC(=O)c1sc(-c2cccc(C(F)(F)F)c2)nc1O | 0.794 µM [rising, full curve, poor fit] |  |
| COc1ccc(Nc2nc(C(=O)NCc3ccco3)cs2)cc1 | 11.2 µM [falling, partial curve] |  |
| O=C(CN1C(=O)COc2ccccc21)Nc1ccccc1F | 3.98 µM [falling, partial curve, poor fit] |  |
| S=c1[nH]nc(-c2cccs2)n1Cc1ccccc1 | 35.5 µM [rising, single point] |  |
| COc1cccc(NCc2cc3c(C(C)(C)C)nn(-c4ccccc4)c3[nH]c2=O)c1 | 29.1 µM [falling, single point] |  |
| CC(NC(=O)/C(C#N)=C/c1cccs1)c1ccccc1 (stereo not drawn) | 1.58 µM [rising, partial curve, poor fit] |  |
| CCCN1CCN(CCCNC(=O)c2ccc3nc(N4CCC(C)CC4)sc3c2)CC1 | 0.398 µM [falling, partial curve, poor fit] |  |
| Cc1cc(NC(=O)CSc2nc3ccsc3c(=O)n2NC(=O)c2ccccc2)no1 | 0.58 µM [rising, full curve, poor fit] |  |
| CC1CCC(C(C)C)C(OC(=O)COC(=O)c2cccn2C)C1 (stereo not drawn) | 6.31 µM [rising, full curve] |  |
| O=C(CCl)Nc1ccc(Sc2ccc(NC(=O)CCl)cc2)cc1 | 35.5 µM [falling, single point] |  |
| COc1ccc(NC(=O)CC2CC3CCC2C3)cc1S(=O)(=O)N1CCOCC1 (stereo not drawn) | 25.9 µM [rising, single point] |  |
| N#Cc1c(-c2ccccc2)cc(-c2ccccc2)[nH]c1=O | 5.62 µM [falling, single point] |  |
| COc1cc(/C=N/NC(=O)c2nonc2C)ccc1O | 12.6 µM [falling, partial curve, poor fit] |  |

An excerpt of these results, with tabs:
Structure (SMILES)	AC50 [1]	AC50 [2]
c1ccc2c(c1)OCCc1c-2[nH]c2ccccc12	3.55 µM [rising, partial curve, poor fit]	
CC(=O)Oc1ccc2nc(-c3ccc(Br)o3)oc(=O)c2c1	0.355 µM [falling, full curve, poor fit]	
CCc1c(C)nc(SCC(=O)Nc2ccc3c(c2)OCCO3)[nH]c1=O	20 µM [falling, single point]	
CCN(C[C@H]1N[C@@](Cc2ccccc2)(C(=O)OC)[C@H]2C(=O)N(C)C(=O)[C@@H]12)C(=O)Nc1ccc(Cl)cc1	29.1 µM [rising, single point]	
S=c1[nH]nc(-c2cccs2)n1Cc1ccccc1	35.5 µM [rising, single point]	
CC(NC(=O)/C(C#N)=C/c1cccs1)c1ccccc1 (stereo not drawn)	1.58 µM [rising, partial curve, poor fit]	
CCCN1CCN(CCCNC(=O)c2ccc3nc(N4CCC(C)CC4)sc3c2)CC1	0.398 µM [falling, partial curve, poor fit]	
Cc1cc(NC(=O)CSc2nc3ccsc3c(=O)n2NC(=O)c2ccccc2)no1	0.58 µM [rising, full curve, poor fit]	
CC1CCC(C(C)C)C(OC(=O)COC(=O)c2cccn2C)C1 (stereo not drawn)	6.31 µM [rising, full curve]	

Additional records:

| Structure (SMILES) | AC50 [1] | AC50 [2] |
| --- | --- | --- |
| CCOc1ccc2[nH]c3c(NCCOC)ncnc3c2c1 | 12.6 µM [rising, single point] |  |
| Cc1nc2cc(NC(=O)N3c4ccccc4CC3C)ccc2n1C (stereo not drawn) | 16.4 µM [falling, single point] |  |
| Cc1cc(=O)oc2c3c(cc(OCC(=O)Nc4ccc(CCO)cc4)c12)OC(C)(C)CC3 | 3.16 µM [rising, partial curve] |  |
| O=C(N/N=C/c1ccc(Br)o1)c1ccc2c(c1)OCCO2 | 13 µM [falling, partial curve] |  |
| O=S(=O)(c1ccc2ccccc2c1)N1CCCCCC1 | 10 µM [falling, partial curve, poor fit] | 20 µM [rising, partial curve, poor fit] |
| CCCN(CCC)Cc1cc2ccccc2c2c1COC2 | 25.9 µM [rising, partial curve, poor fit] |  |
| C[C@@H]1C[C@H](Nc2ccccc2)c2ccccc2N1C(=O)c1cccnc1 | 35.5 µM [falling, single point] |  |
| O=C1C=C(c2ccc(O)cc2)C[C@@H](c2ccc3c(c2)OCO3)C1 | 29.1 µM [falling, single point] |  |
| COc1cc(C2C(N3C(=O)c4ccccc4C3=O)C(=O)N2c2cccc(C)c2)cc(OC)c1OC (stereo not drawn) |  | 10.3 µM [falling, partial curve] |
| CC1=NN(C(N)=S)C(=O)C1N=Nc1ccccc1 (stereo not drawn) | 2.82 µM [falling, full curve] | 1.12 µM [falling, full curve] |
| COc1ccc(-c2nnn(CC#N)n2)cc1OC | 8.2 µM [rising, partial curve, poor fit] |  |
| COc1ccccc1C(=O)NNC1=C(C(=O)C(F)(F)F)CCC1 | 0.562 µM [falling, partial curve, poor fit] |  |
| O=C(O)C1CC(c2ccccc2)=Nc2ccccc2S1 (stereo not drawn) | 14.1 µM [falling, single point] |  |
| CC1CN(C(=O)C(c2ccccc2)c2ccccc2)CC(C)O1 (stereo not drawn) | 6.51 µM [falling, single point] |  |
| O/C(=C\c1ccc2ccccc2n1)c1ccc(O)cc1O | 11.2 µM [falling, single point] |  |
| CCCOc1ccc(C(=O)NNC(=S)NC(=O)c2ccccc2[N+](=O)[O-])cc1 | 11.2 µM [rising, single point] |  |
| CCN(CC)c1ccc(C2=NNC(=O)CC2C)cc1[N+](=O)[O-] (stereo not drawn) | 35.5 µM [rising, single point] |  |
| Cc1cc(C)c2c(N)c(C(=O)Nc3ccccc3F)sc2n1 | 3.16 µM [falling, partial curve, poor fit] |  |
| Cc1ccc(SCc2ccc(C(=O)N3CCCC3)cc2)cc1 | 20 µM [falling, single point] |  |
| O=C(CCN1CCN(C(=O)c2ccccc2)CC1)c1ccc(Br)cc1 | 15.8 µM [falling, single point] |  |
